This note sets out measurements from publication PMC523230, “Dictyostelium Myosin Bipolar Thick Filament Formation: Importance of Charge and Specific Domains of the Myosin Rod” (PLoS Biology, 2004).

Residue numbers refer to the chain shown, from its start. Results are given in words; binding and its absence hold for the method and conditions named. Some results given as binding are weak or reduced against the parent protein; the word gives no strength.

The target in assay [1] is AD-2015 (2xThr) (Dictyostelium discoideum) (UniProt P08799). Put plainly: sedimentation assembly assay; unpublished data; self-assembly of AD-2015 (2xThr); both purified.
For assay [2], the target named is AD-Cterm (3xAsp) myosin-II tail fragment (Dictyostelium discoideum) (UniProt P08799). Put plainly: negative-stain electron microscopy; unpublished data; electron micrographs of assembled samples; both purified.
The target of assay [3] is AD-Cterm (3xThr) myosin-II tail fragment (Dictyostelium discoideum) (UniProt P08799). Put plainly: AUC; sedimentation equilibrium; step: coiled coils to larger species; 10.5-52 uM protein, 10 mM Tris pH 7.4, 0.1 mM EDTA, 500 mM NaCl, 10 °C, 10,000 rpm; both purified.

With “AD-2015 (2xThr) (from UniProt P08799 1531-2015) (domain or fragment)”, the binding entry in assay [1] is “binds”.

B1: AD-Cterm (3xAsp) myosin-II tail fragment (domain or fragment, Dictyostelium discoideum)
chain: MNVEFIRKKDAEIDDLRARLDRETESRIKSDEDKKNTRKQFADLEAKVEEAQREVVTIDRLKKKLESDIIDLSTQLDTETKSRIKIEKSKKKLEQTLAERRAAEEGSSKAADEEIRKQVWQEVDELRAQLDSERAALNASEKKIKSLVAEVDEVKEQLEDEILAKDKLVKAKRALEVELEEVRDQLEEEEDSRSELEDSKRRLTTEVEDIKKKYDAEVEQNTKLDEAKKKLTDDVDTLKKQLEDEKKKLNESERAKKRLESENEDFLAKLDAEVKNRSRAEKDRKKYEKDLKDDKYKLNDEAADKTQTEIGAAKLEDQIDELRSKLEQEQAKATQADKSKKTLEGEIDNLRAQIEDEGKIKMRLEKEKRALEGELEELRETVEEAEDSKSEAEQSKRLVELELEDARRNLQKEIDAKEIAEDAKSNLQREIVEAKGRLEEESIARTNSDRSRKRLEAEIDALTAQVDAEQKAKNQQIKENKKIETELKEYRKKFGESEKDKTKEFLVVEKLETDYKRAKKEAADEQQQRLTVENDLRKHLSEISLLKDAIDKLQRDHDKTKRELETETASKIEMQRKMADFFGGFKA
notes: N-terminal methionine added before the myosin residues; Dictyostelium myosin-II heavy chain, a.a; 1,531-2,116, aspartic acids in place of the three threonine phosphorylation sites; Phosphomimetic; also called headless AD-Cterm (3xAsp); 3xAsp tail fragment; source: E. coli BL21-CodonPlus (DE3)-RIL, purified (boiling, DEAE, Superdex 200, Mono Q)
As to B1, the binding entry in assay [2] is recorded as “binds weakly”.

B2: AD-Cterm (3xThr) myosin-II tail fragment (domain or fragment, Dictyostelium discoideum)
chain: B1 chain with D294T, D304T, D500T
notes: N-terminal methionine added before the myosin residues; Dictyostelium myosin-II heavy chain, a.a; 1,531-2,116 (assembly domain through C terminus); the assembly rows are about coiled coils joining into paracrystals; also called headless AD-Cterm (3xThr); wild-type tail fragment; source: E. coli BL21-CodonPlus (DE3)-RIL, purified (boiling, DEAE, Superdex 200, Mono Q)
For B2, the binding entry in assay [3] is reported as “no binding (condition: 500 mM NaCl)”.
